In patent US20240368668A1, “SUBSTRATES AND BIOMARKERS OF ADAMTS7” (The Broad Institute, Inc., priority 2021, published 2024):

How the values were obtained:
[1] = test system: mouse ADAMTS7; experiment: TMT10 TAILS N-terminomics, SMC1 experiment (Ad-mADAMTS7 WT vs EQ vs Luc, technical replicates, trypsin digest); format: cell-based; settings: for SMC1 TAILS.total Intensity: TAILS HC Overlap, total intensity of the peptide; for TAILS_SMC_Scaleup_fxns_mATS7i: TAILS N-terminal peptide signal, SMC scale-up fractions, mouse ADAMTS7, label = TAILS_id (gene symbol_StartAA)
Method in brief: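 Full-length mouse ADAMTS7 (WT or E373Q mutant, C-terminal 3xFLAG) or luciferase was transduced via adenovirus, 50 MOI, into HCA-SMC (SMC1, SMC2) or HUVEC. SMC1: pooled media, technical triplicates 400 ug; SMC2: process triplicates 300 ug; HUVEC: process triplicates 200 ug, bFGF2 10 ng/ml.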

[2] = test system: mouse ADAMTS7; experiment: TMT10 TAILS N-terminomics, SMC2 experiment (process replicates, trypsin/AspN digest); format: cell-based; settings: for SMC2 TAILS.total Intensity: SMC2 experiment, total intensity of the N-terminal (TAILS) peptide
From the text: ADAMTS7 Expression, Cell Culture and Preparation of the Secreted Proteins—Full-length mouse Adamts7 1-1857 (Uniprot Q68SA9, WT or E373Q catalytic mutant) with a carboxyl terminal 3xFLAG tag was used to generate custom adenoviruses as previously described. Adeno-CMV-Luciferase (Ad-Luc) from Vector Biolabs was used as a negative control. Human Coronary Artery Smooth Muscle Cells (HCA-SMC) were obtained from Lonza and expanded in Lonza SmGM-2 media in 15 cm tissue culture plates. Twenty-four hours before media collection, near confluent plates were transduced with 50 MOI adenovirus and switched to Lonza Basal SM media with volumes of 20 ml per 15 cm plate. Expression of the Flag tagged ADAMTS7 was confirmed from the media using western blot and detected using the anti-Flag M2-HRP antibody (Sigma, A8592). Collected media was processed by adding protease inhibitors (1 mM EDTA and 1 mM PMSF) and clarified by 500 g×5 min spin at 4 C to pellet cell debris. Cell media supernatants were then passed through a 0.22 um filter and kept chilled. Processed media was then concentrated 50-100× using 3 kDa Centricon Plus-70 filter unit, spun at 3,500 g×60 min at 4 C. Approximately 10% of the processed, concentrated media was set aside for total secretome proteolytic analysis. The remaining 90% of the processed, concentrated media was buffer exchanged into 50 mM HEPES pH 8.0, 150 mM NaCl (2×50 ml) using the 3 kDa Centricon Plus-70 filter unit and concentrated to >2 mg/ml to serve as input for the TAILS experiment. Secretome and TAILS input samples were stored at −80° C.
For the first experiment, referred to as SMC1, 120 ml of media from 6×15 cm dishes was pooled from each condition (Luc, WT, EQ) and processed to produce three separate inputs for the TAILS experiment. Luc, WT and EQ inputs from the SMC1 experiment were each divided into triplicate 400 ug samples to generate technical replicate TAILS data. For the second experiment, referred to as SMC2, media was processed separately in triplicate for each condition (Luc1, Luc2, Luc3, WT1, WT2, WT3, EQ1, EQ2, EQ3) using 60 ml of media from 3×15 cm dishes for each process replicate. Inputs from the SMC2 experiment used process replicates of 300 ug each to generate TAILS data. The third experiment used input from cultured Human umbilical vein endothelial cells (HUVEC) from Lifeline Cell Technology grown in VascuLife Media and transduced in Lifeline Basal EC (+bFGF2 10 ng/ml). The HUVEC experiment used the same strategy as the SMC2 experiment, with 40 ml of media from 2×15 cm dishes for each process replicate and used 200 ug each to generate TAILS data. Inputs for process replicate experiments were restricted to the lowest concentration from the 9 parallel samples for SMC2 or HUVEC.
TMT10 isotopic labeling and negative selection of non-labeled peptides-Sample preparation was performed based on the TAILS protocol from the Overall lab with some modifications. From a single experiment, nine parallel protein samples in 50 mM HEPES pH 8.0, 150 mM NaCl were separately denatured with guanidinium chloride (Sigma, G4505) to reach a final concentration of 2.5M guanidinium chloride and 250 mM HEPES and incubated at 65° C. for 15 min. Reduction was achieved through addition of tris(2-carboxylethyl) phosphine (TCEP) at a final concentration of […] and incubated at 65° C. for 45 min. Alkylation reaction was performed with addition of iodoacetamide (IAA, Sigma, A3221) to a final concentration of 10 mM IAA for 15 min at room temperature in the dark. Following denaturation, reduction and alkylation steps, ten percent of each of the nine parallel protein samples was removed and combined to serve as a pooled reference. Isobaric tags were added to free amine groups using the TMT10plex Isobaric Mass Tagging Kit (ThermoFisher, 90113) with TMT channels randomly assigned to the nine samples and TMT 131 assigned to the pooled reference. […]

[3] = total intensity of the N-terminal peptide spectra, SMC rd2 TAILS fractions, AspN/GluC search
[4] = SMC rd2 TAILS, AspGluN search, total spectral intensity of the N-terminal peptide (TAILS_id = gene_StartAA cleavage site)
[5] = SMC rd2 TAILS, AspGluN digest, total MS intensity of the N-terminal peptide at the given StartAA

CCDC80_66 (LEEPNLQPLQR; listed as Homo sapiens)
SMC1 TAILS.total Intensity [1]: 7.99E+09 | TAILS_SMC_Scaleup_fxns_mATS7i [1]: 7.99E+09 | SMC2 TAILS.total Intensity [2]: 3.94E+08 | ATS7_SMC_rd2_TAILS_frxns_matS7inDB_AspGluN_retry.totalIntensity [2, 3]: 3.94E+08

COL1A2_80 (QYDGKGVGLGPGPMGLMGPR; listed as Homo sapiens)
SMC1 TAILS.total Intensity [1]: 1.24E+09 | TAILS_SMC_Scaleup_fxns_mATS7i [1]: 1.24E+09 | SMC2 TAILS.total Intensity [2]: 2.08E+07 | ATS7_SMC_rd2_TAILS_frxns_matS7inDB_AspGluN_retry.totalIntensity [2, 3]: 2.08E+07

COL1A2_270 (VGNAGPAGPAGPR; listed as Homo sapiens)
SMC1 TAILS.total Intensity [1]: 5.91E+07 | TAILS_SMC_Scaleup_fxns_mATS7i [1]: 5.91E+07 | SMC2 TAILS.total Intensity [2]: 2.57E+09 | ATS7_SMC_rd2_TAILS_frxns_matS7inDB_AspGluN_retry.totalIntensity [2, 3]: 2.57E+09

COL1A2_305 (LTGAKGAAGLPGVAGAPGLPGPR; listed as Homo sapiens)
SMC1 TAILS.total Intensity [1]: 5.24E+07 | TAILS_SMC_Scaleup_fxns_mATS7i [1]: 5.24E+07 | SMC2 TAILS.total Intensity [2]: 1.16E+09 | ATS7_SMC_rd2_TAILS_frxns_matS7inDB_AspGluN_retry.totalIntensity [2, 3]: 1.16E+09

COL1A2_630 (VGTAGPSGPSGLPGER; listed as Homo sapiens)
SMC1 TAILS.total Intensity [1]: 8.62E+06 | TAILS_SMC_Scaleup_fxns_mATS7i [1]: 8.62E+06 | SMC2 TAILS.total Intensity [2]: 1.32E+08 | ATS7_SMC_rd2_TAILS_frxns_matS7inDB_AspGluN_retry.totalIntensity [2, 3]: 1.32E+08

COL1A2_866 (LLGAPGILGLPGSR; listed as Homo sapiens)
SMC1 TAILS.total Intensity [1]: 7.88E+09 | TAILS_SMC_Scaleup_fxns_mATS7i [1]: 7.88E+09 | SMC2 TAILS.total Intensity [2]: 4.62E+10 | ATS7_SMC_rd2_TAILS_frxns_matS7inDB_AspGluN_retry.totalIntensity [2, 3]: 4.62E+10

COL1A2_960 (AGAPGPHGPVGPAGKHGNR; listed as Homo sapiens)
SMC1 TAILS.total Intensity [1]: 4.57E+08 | TAILS_SMC_Scaleup_fxns_mATS7i [1]: 4.57E+08 | SMC2 TAILS.total Intensity [2]: 3.12E+09 | ATS7_SMC_rd2_TAILS_frxns_matS7inDB_AspGluN_retry.totalIntensity [2, 3]: 3.12E+09

COL1A2_1028 (LQGLPGIAGHHGDQGAPGSVGPAGPR; listed as Homo sapiens)
SMC1 TAILS.total Intensity [1]: 1.05E+09 | TAILS_SMC_Scaleup_fxns_mATS7i [1]: 1.05E+09 | SMC2 TAILS.total Intensity [2]: 9.44E+08 | ATS7_SMC_rd2_TAILS_frxns_matS7inDB_AspGluN_retry.totalIntensity [2, 3]: 9.44E+08

COL4A2_71 (YNGPPGLQGFPGLQGR; listed as Homo sapiens)
SMC1 TAILS.total Intensity [1]: 6.55E+07 | TAILS_SMC_Scaleup_fxns_mATS7i [1]: 6.55E+07 | SMC2 TAILS.total Intensity [2]: 2.73E+08 | ATS7_SMC_rd2_TAILS_frxns_matS7inDB_AspGluN_retry.totalIntensity [2, 3]: 2.73E+08

KRT28_2 (SLQFSNGSR; listed as Homo sapiens)
ATS7_SMC_rd2_TAILS_frxns_matS7inDB_AspGluN_retry.totalIntensity [2, 4]: 2.34E+08

LASP1_182 (SYGGYKEPAAPVSIQR; listed as Homo sapiens)
ATS7_SMC_rd2_TAILS_frxns_matS7inDB_AspGluN_retry.totalIntensity [2, 4]: 1.27E+08

LOXL1_157 (SVSASAFASTYR; listed as Homo sapiens)
ATS7_SMC_rd2_TAILS_frxns_matS7inDB_AspGluN_retry.totalIntensity [2, 4]: 9.17E+06

LOXL1_218 (AVASAGVIYPYQPR; listed as Homo sapiens)
ATS7_SMC_rd2_TAILS_frxns_matS7inDB_AspGluN_retry.totalIntensity [2, 4]: 2.92E+08

LOXL2_45 (HQPQAPANVAKIQLR; listed as Homo sapiens)
ATS7_SMC_rd2_TAILS_frxns_matS7inDB_AspGluN_retry.totalIntensity [2, 4]: 6.08E+08

LOX_60 (LGSQYQPQR; listed as Homo sapiens)
ATS7_SMC_rd2_TAILS_frxns_matS7inDB_AspGluN_retry.totalIntensity [2, 4]: 3.55E+08

LTBP2_290 (QHVGLSR; listed as Homo sapiens)
ATS7_SMC_rd2_TAILS_frxns_matS7inDB_AspGluN_retry.totalIntensity [2, 4]: 9.07E+08

LTBP3_103 (LTGSGFR; listed as Homo sapiens)
ATS7_SMC_rd2_TAILS_frxns_matS7inDB_AspGluN_retry.totalIntensity [2, 4]: 3.47E+09

MMP1_100 (FVLTEGNPR; listed as Homo sapiens)
ATS7_SMC_rd2_TAILS_frxns_matS7inDB_AspGluN_retry.totalIntensity [2, 4]: 7.48E+07

MMP1_185 (FQPGPGIGG; listed as Homo sapiens)
ATS7_SMC_rd2_TAILS_frxns_matS7inDB_AspGluN_retry.totalIntensity [2, 4]: 6.29E+07

NBEA_1892 (LEKVAPLLR; listed as Homo sapiens)
ATS7_SMC_rd2_TAILS_frxns_matS7inDB_AspGluN_retry.totalIntensity [2, 4]: 1.60E+08

PAK4_141 (HSEAGGGSG; listed as Homo sapiens)
ATS7_SMC_rd2_TAILS_frxns_matS7inDB_AspGluN_retry.totalIntensity [2, 4]: 3.77E+06

PLIN3_75 (VSGAQPILSKL; listed as Homo sapiens)
ATS7_SMC_rd2_TAILS_frxns_matS7inDB_AspGluN_retry.totalIntensity [2, 4]: 5.73E+07

POSTN_727 (IITGPEIKYTR; listed as Homo sapiens)
ATS7_SMC_rd2_TAILS_frxns_matS7inDB_AspGluN_retry.totalIntensity [2, 4]: 6.22E+09

PTPRF_1859 (MRYEGVVDMFQTVKTLR; listed as Homo sapiens)
ATS7_SMC_rd2_TAILS_frxns_matS7inDB_AspGluN_retry.totalIntensity [2, 4]: 1.20E+09

QSOX1_210 (HKGVAVR; listed as Homo sapiens)
ATS7_SMC_rd2_TAILS_frxns_matS7inDB_AspGluN_retry.totalIntensity [2, 4]: 7.78E+07

SHC2_267 (VAKDPINQRACHIL; listed as Homo sapiens)
ATS7_SMC_rd2_TAILS_frxns_matS7inDB_AspGluN_retry.totalIntensity [2, 5]: 3.39E+07

SRGN 59 (LLPGESNKIPR; listed as Homo sapiens)
ATS7_SMC_rd2_TAILS_frxns_matS7inDB_AspGluN_retry.totalIntensity [2, 5]: 2.86E+09

TLN1_1004 (AKASVPTIQ; listed as Homo sapiens)
ATS7_SMC_rd2_TAILS_frxns_matS7inDB_AspGluN_retry.totalIntensity [2, 5]: 6.83E+07

TNPO2_744 (VQMVLNNLVEIINRPNTPKTLLE; oxidized methionine, deamidated asparagine; listed as Homo sapiens)
ATS7_SMC_rd2_TAILS_frxns_matS7inDB_AspGluN_retry.totalIntensity [2, 5]: 2.81E+08

TNS1_236 (QEGLAGYQR; listed as Homo sapiens)
ATS7_SMC_rd2_TAILS_frxns_matS7inDB_AspGluN_retry.totalIntensity [2, 5]: 1.65E+08

TRGC2_86 (HRCIVRHENNK; listed as Homo sapiens)
ATS7_SMC_rd2_TAILS_frxns_matS7inDB_AspGluN_retry.totalIntensity [2, 5]: 6.46E+08

TTN_5975 (VKEPPVEFTKPL; listed as Homo sapiens)
ATS7_SMC_rd2_TAILS_frxns_matS7inDB_AspGluN_retry.totalIntensity [2, 5]: 4.70E+08

VAT1_42 (AASPPLLR; listed as Homo sapiens)
ATS7_SMC_rd2_TAILS_frxns_matS7inDB_AspGluN_retry.totalIntensity [2, 5]: 1.26E+08

VCAN_3367 (FKNSSSAK; listed as Homo sapiens)
ATS7_SMC_rd2_TAILS_frxns_matS7inDB_AspGluN_retry.totalIntensity [2, 5]: 3.21E+08

VIM_276 (YESVAAKNLQ; listed as Homo sapiens)
ATS7_SMC_rd2_TAILS_frxns_matS7inDB_AspGluN_retry.totalIntensity [2, 5]: 5.15E+08

VIM_322 (QVQSLTCEV; listed as Homo sapiens)
ATS7_SMC_rd2_TAILS_frxns_matS7inDB_AspGluN_retry.totalIntensity [2, 5]: 1.12E+09

ZSCAN4_25 (FQQSQGPAVQR; listed as Homo sapiens)
ATS7_SMC_rd2_TAILS_frxns_matS7inDB_AspGluN_retry.totalIntensity [2, 5]: 2.40E+08
